# Test results as given in paper PMC11912475 (Journal of Medicinal Chemistry, 2025).
# System: Glutamate, NMDA, Phencyclidine binding site
# Experiment: Radioligand displacement binding assay, [3H]TCP, NMDA
# Design: species or system Wistar rat
structure (smiles),measurement,setting,value
"CCC(=O)C(C[C@H](C)N(C)C)(c1ccccc1)c1ccccc1 [(S)-methadone, 6-(Dimethylamino)-4,4-diphenylheptan-3-one, reference compound]","% inhibition of binding, NMDA",1 μM,23%
same,"% inhibition of binding, NMDA",10 μM,68%
